Measured values as given in article PMC8024396, “Biochemical and structural characterization of the BioZ enzyme engaged in bacterial biotin synthesis pathway” (Nature Communications, 2021).
These are yes or no findings as the source states them, for the method shown. Some entries that bind do so weakly or less than the wild type.

Target: Agrobacterium tumefaciens BioZ (Agrobacterium tumefaciens)
Assay: crystal structure; AtBioZ, hanging drop, 0.2 M sodium nitrate, 20% PEG 3350, 16 °C; space group P212121, two protomers per asymmetric unit; 1.99 Å; both purified

B1: Agrobacterium tumefaciens BioZ (enzyme, UniProt A0AA44F6N6 1-328, looked up)
chain: MQTRSSRMAGFGHAVPARCVRNAEIETRLGLEAGWIERRTGIRTRYWAQEGETLSGLAEKAGRMALENARIGAEDIALTLLATSTPDHLLPPSAPLLAHRLGLTQSGAIDLAGACSGFLYALTLADGFVRTHGRAVLVVAANILSRRINPAERATAVLFADAAGAVVLVPCRDAQRGLLSADLVSDGSGYDLIQIAAGGSSQPFSNDTEAEDTLMTMRDGREVFSRAVATMTQTSQRALQRAEMTATDIQRFLPHQANARMFDAVCGNIGIDRQKTVRTVETFGNSSAATIPLSLSVSNAERPITEGETLLLTAAGAGMTGGAVVYRG
notes: BioZ (FabH2), atypical beta-ketoacyl-ACP synthase III of Agrobacterium tumefaciens; bioZ gene cloned into pET28a; apparent mass ~36 kDa; 654 protein residues in the two protomers of PDB 6KUE; also called AtBioZ; FabH2; source: E. coli BL21 with pET28::atbioZ, purified (Ni-NTA, TEV cleavage, Superdex 200 Increase SEC); not shown: His6, N-terminal, cleaved
- binding: binds
